The text below walks through data of PubChem BioAssay AID330 (DTP/NCI, 2004).

The list does not hold the whole screen: it gathers tests that were run many times, whatever their T/C, doses with no T/C, and many T/C values between a quarter and a half above the control. Further doses and runs are listed elsewhere. T/C: endpoint of the treated group in % of that of the vehicle group. Some entries give survivors of the animals treated and no T/C: the source holds a T/C of zero for them, seemingly a mark for toxic or unscored doses. Some doses without a T/C left all or most animals alive at the check, yet need not have been tolerated: the source hardly ever lists a survival T/C far under the control, and the zero likely stands for such cases as well. Counts of survivors are from the toxicity check (mostly the fifth day) where no day follows; animals may have died later. Schedules are NCI's codes, taken here to give the interval after Q, in days (D) or hours (H), and the number of doses after X. Some entries hold several experiments; the values are given in rising order. Where survival is the endpoint, this PubChem deposit counts one and a half times the control or more as active, and values a quarter to a half above the control carry no call in these data; other NCI protocols may use other cut-offs.

The test system of this assay is P388 leukemia ip, CD2F1 mice, survival T/C. The assay is described as follows: NCI In Vivo Anticancer Drug Screen. Data for tumor model P388 Leukemia (intraperitoneal) in CD2F1 (CDF1) mice. The conditions noted are these: T/C endpoint: median survival time, higher T/C = longer survival.
The mark [1] stands for this setting: dose: 50.0 mg/kg/injection, schedule: Q01DX009 (ip), vehicle: Klucel (hydroxypropylcellulose) (HPC).
The mark [2] stands for this setting: dose: 100.0 mg/kg/injection, schedule: Q01DX009 (ip), vehicle: Klucel (hydroxypropylcellulose) (HPC).
The mark [3] stands for this setting: dose: 200.0 mg/kg/injection, schedule: Q01DX009 (ip), vehicle: Klucel (hydroxypropylcellulose) (HPC).
Where [4] appears, read: dose: 50.0 mg/kg/injection, schedule: Q04DX003 (ip), vehicle: water.
The mark [5] stands for this setting: dose: 100.0 mg/kg/injection, schedule: Q04DX003 (ip), vehicle: water.
Where [6] appears, read: dose: 200.0 mg/kg/injection, schedule: Q04DX003 (ip), vehicle: water.
Setting [7] is: dose: 50.0 mg/kg/injection, schedule: Q01DX005 (ip), vehicle: saline.
Setting [8] is: dose: 200.0 mg/kg/injection, schedule: Q01DX005 (ip), vehicle: saline.
Setting [9] is: dose: 200.0 mg/kg/injection, schedule: Q01DX009 (ip), vehicle: saline with Tween-80.
[10] abbreviates: dose: 240.0 mg/kg/injection, schedule: Q01DX005 (ip), vehicle: saline with Tween-80.
The mark [11] stands for this setting: dose: 50.0 mg/kg/injection, schedule: Q04DX003 (ip), vehicle: distilled water + Tween-80.
Setting [12] is: dose: 100.0 mg/kg/injection, schedule: Q04DX003 (ip), vehicle: distilled water + Tween-80.
The mark [13] stands for this setting: dose: 400.0 mg/kg/injection, schedule: Q04DX003 (ip), vehicle: saline with Tween-80.
[14] abbreviates: dose: 50.0 mg/kg/injection, schedule: Q01DX009 (ip), vehicle: saline with Tween-80.
The mark [15] stands for this setting: dose: 100.0 mg/kg/injection, schedule: Q01DX009 (ip), vehicle: saline with Tween-80.

In the case of `O=C(O)/C=N/NS(=O)(=O)c1cccc([N+](=O)[O-])c1`, the T/C runs as follows: (dose: 12.5 mg/kg/injection, schedule: Q01DX009 (ip), vehicle: other) 138 % of control; (dose: 50.0 mg/kg/injection, schedule: Q01DX009 (ip), vehicle: other) 131 and 134 % of control; (dose: 100.0 mg/kg/injection, schedule: Q01DX009 (ip), vehicle: other) 130, 137, 141 % of control. Besides, the survivor count (dose: 200.0 mg/kg/injection, schedule: Q01DX009 (ip), vehicle: other) is 3 of 6 and 5 of 6; the survivor count (dose: 400.0 mg/kg/injection, schedule: Q01DX009 (ip), vehicle: other) was 3 of 6 and 4 of 6.

Regarding `CC(F)C(N)C(=O)O` (configuration not stated), the T/C (dose: 25.0 mg/kg/injection, schedule: Q01DX009 (ip), vehicle: Klucel (hydroxypropylcellulose) (HPC)) was 125 % of control. For the same compound, the survivor count reads like this: under setting [1], 6 of 6; under setting [2], 6 of 6; under setting [3], 4 of 6; (dose: 200.0 mg/kg/injection, schedule: Q01DX009 (ip), vehicle: saline) 0 of 6.

Take `Cc1cc(NC(=S)SCc2ccc3c(c2)OCO3)ccc1Cl`: the T/C under setting [1] was 129 % of control, the T/C under setting [2] was 129 % of control and the T/C under setting [3] was 131 % of control. Moreover, the survivor count (dose: 400.0 mg/kg/injection, schedule: Q01DX009 (ip), vehicle: Klucel (hydroxypropylcellulose) (HPC)) was 3 of 6.

As to `O=[N+]([O-])c1cc(NC(=S)SCc2ccccc2)ccc1Cl`, the survivor count (dose: 100.0 mg/kg/injection, schedule: Q01DX009 (ip), vehicle: suspension in saline) is given as 5 of 6.

Turning to `CCCC1(CCC)NC(=O)N(CC(=O)OCC)C1=O`, the survivor count (dose: 400.0 mg/kg/injection, schedule: Q01DX001 (ip), vehicle: saline) is 6 of 6.

In the case of `O=C1C=CC(=O)c2c(O)c3c(c(O)c21)C[C@H](O)[C@H](O)[C@@H]3O`, the survivor count (dose: 12.5 mg/kg/injection, schedule: Q04DX003 (ip), vehicle: water) is 0 of 6; the survivor count (dose: 25.0 mg/kg/injection, schedule: Q04DX003 (ip), vehicle: water) is recorded as 0 of 6; the survivor count under setting [4] is 0 of 6; the survivor count under setting [5] is listed as 0 of 6; the survivor count under setting [6] is 0 of 6.

As for `CN1CCC2(C)CC1Cc1ccc(O)cc12` (configuration not stated), the survivor count under setting [7] is 0 of 6; the survivor count (dose: 100.0 mg/kg/injection, schedule: Q01DX005 (ip), vehicle: saline) is 0 of 6; the survivor count under setting [8] was 0 of 6.

In the case of `O=C(NC1CC(c2ccccc2)(c2ccccc2)OC1=O)c1ccccc1` (configuration not stated), the survivor count under setting [9] is on record as 5 of 6.

On to `Br/N=C1/C=CC=C/C1=N/Br`, for which the T/C under setting [7] is 125 % of control.

As to `CCOC(=O)c1c(C)[nH]c(-c2ccccc2)c1NS(=O)(=O)c1ccc(N)cc1`, under setting [10], the survivor count is 6 of 6.

On to `CC(=O)c1c(O)cc2c(c1O)C1CC(C)(CCC1=C(C)C)O2` (configuration not stated), for which the survivor count (dose: 50.0 mg/kg/injection, schedule: Q01DX009 (ip), vehicle: saline) is recorded as 6 of 6.

`COc1cc2c(cc1OC)-c1c(C)c3ccc(OC)c(OC)c3c[n+]1CC2`: the survivor count under setting [11] was 0 of 6; the survivor count under setting [12] was 0 of 6; the survivor count (dose: 200.0 mg/kg/injection, schedule: Q04DX003 (ip), vehicle: distilled water + Tween-80) is 0 of 6; the survivor count (dose: 400.0 mg/kg/injection, schedule: Q04DX003 (ip), vehicle: distilled water + Tween-80) is 0 of 6.

Turning to `Cc1c2cccc(F)c2c[n+]2ccccc12`, the survivor count was 0 of 6 under setting [1] and 0 of 6 under setting [2].

Regarding `CCCCN=Cc1ccccc1`, the survivor count under setting [13] is reported as 4 of 6.

For the compound `NC1=NC(=S)C2N=C(N=Nc3ccc(C(=O)NC(CCC(=O)O)C(=O)O)cc3)N=C2N1` (configuration not stated), the T/C runs as follows: (dose: 0.75 mg/kg/injection, schedule: Q01DX009 (ip), vehicle: Klucel (hydroxypropylcellulose) (HPC)) 130 and 138 % of control; (dose: 1.5 mg/kg/injection, schedule: Q01DX009 (ip), vehicle: Klucel (hydroxypropylcellulose) (HPC)) 141 and 146 % of control; (dose: 3.0 mg/kg/injection, schedule: Q01DX009 (ip), vehicle: Klucel (hydroxypropylcellulose) (HPC)) 145 % of control.

On to `CCCCNc1c(OC)ccc2c(C)c3[n+](cc12)CCc1cc(OC)c(OC)cc1-3`, for which the survivor count reads like this: under setting [4], 0 of 3; under setting [5], 0 of 3; under setting [6], 0 of 3; (dose: 400.0 mg/kg/injection, schedule: Q04DX003 (ip), vehicle: water) 0 of 3.

As to `CN1CCN(CC2C(=O)C3CCC2C3)CC1` (configuration not stated), the survivor count (dose: 200.0 mg/kg/injection, schedule: Q01DX005 (ip), vehicle: saline with Tween-80) is on record as 1 of 6.

Regarding `CN(C)/N=N/c1ccn[nH]1`, the T/C (dose: 12.5 mg/kg/injection, schedule: Q01DX009 (ip), vehicle: saline with Tween-80) was 125 % of control.

Regarding `CC1CCC=CC(=O)C1` (configuration not stated), under “dose: 400.0 mg/kg/injection, schedule: Q04DX003 (ip), vehicle: Klucel (hydroxypropylcellulose) (HPC)”, the survivor count is recorded as 0 of 6.

Consider `CN(C)CCNC1c2ccccc2CCc2ccccc21`, for which the survivor count under setting [8] was 0 of 6.

For the compound `O=[N+]([O-])c1cc(C(F)(F)F)ccc1F`, the survivor count under setting [2] is reported as 2 of 6.

On to `CN(C)CCCC1(O)c2ccccc2Sc2cc(Cl)ccc21` (configuration not stated), for which the survivor count under setting [10] was 6 of 6.

Take `CC(CC(=O)c1ccccc1)=NCCCCN=C(C)CC(=O)c1ccccc1`: the survivor count reads like this: (dose: 100.0 mg/kg/injection, schedule: Q04DX003 (ip), vehicle: saline with Tween-80) 6 of 6; (dose: 200.0 mg/kg/injection, schedule: Q04DX003 (ip), vehicle: saline with Tween-80) 6 of 6; under setting [13], 5 of 6.

As for `Cc1c2ccn3c(=O)c4ccccc4cc3c2c(C)c2c1[nH]c1ccccc12`, the survivor count is on record as 6 of 6 (dose: 3.13 mg/kg/injection, schedule: Q04DX003 (ip), vehicle: distilled water + Tween-80); 6 of 6 (dose: 6.25 mg/kg/injection, schedule: Q04DX003 (ip), vehicle: distilled water + Tween-80); 6 of 6 (dose: 12.5 mg/kg/injection, schedule: Q04DX003 (ip), vehicle: distilled water + Tween-80); 5 of 6 (dose: 25.0 mg/kg/injection, schedule: Q04DX003 (ip), vehicle: distilled water + Tween-80); 6 of 6 under setting [11]; 5 of 6 under setting [12].

On to `Nc1nc(N)c2cc(Sc3cccc(C(F)(F)F)c3)ccc2n1`, for which the T/C under setting [14] was 136 % of control. Moreover, the survivor count (dose: 400.0 mg/kg/injection, schedule: Q01DX009 (ip), vehicle: saline with Tween-80) is recorded as 3 of 6.

`CCC(=O)OC1CC2(C)C(=CC1=O)CCC1C2CCC2(C)C(OC(=O)CC)CCC12` (configuration not stated): under setting [13], the survivor count was 6 of 6.

Turning to `CCOC(=O)C(Cc1ccc(O)cc1)NCc1ccc(N(CCCl)CCCl)cc1` (configuration not stated), the T/C is 132 and 138 % of control under setting [14]; 146 % of control under setting [15]. Besides, under setting [9], the survivor count was 0 of 6.

With `CCCCc1c(OC(=O)N(C)C)c(C#N)c2n(C)c3ccccc3n2c1=O`, the survivor count (dose: 120.0 mg/kg/injection, schedule: Q01DX005 (ip), vehicle: saline with Tween-80) is on record as 6 of 6.

Take `Clc1ccc(C(Cn2ccnc2)OCc2c(Cl)cccc2Cl)cc1` (configuration not stated): the survivor count under setting [9] is 4 of 6.

On to `CC(=O)NN`, for which the survivor count is reported as 6 of 6 under setting [15] and 1 of 6 under setting [9].
